The exact form of at least one protein or probe is not confirmed. At least one result comes from cells or an extract, where the contact may be indirect. For some assays here: At least one verdict rests on a figure or table, not on a statement of the authors. Protein sequences can lack the tags named with them.
How the values were obtained:
Experiment in all cases: pull-down, UV cross-linking, MS
Conditions in all cases: tRNA competitor, absent from or subtracted against 74-95 RNA control; extra DTT, 30 ug tRNA, 160 ug yeast protein; protein in an extract; label: 3'-biotin
[1] = target: T1, eIF4A (Saccharomyces cerevisiae M3 (wild type)) (UniProt P10081)
T1 sequence (looked up, limits assumed): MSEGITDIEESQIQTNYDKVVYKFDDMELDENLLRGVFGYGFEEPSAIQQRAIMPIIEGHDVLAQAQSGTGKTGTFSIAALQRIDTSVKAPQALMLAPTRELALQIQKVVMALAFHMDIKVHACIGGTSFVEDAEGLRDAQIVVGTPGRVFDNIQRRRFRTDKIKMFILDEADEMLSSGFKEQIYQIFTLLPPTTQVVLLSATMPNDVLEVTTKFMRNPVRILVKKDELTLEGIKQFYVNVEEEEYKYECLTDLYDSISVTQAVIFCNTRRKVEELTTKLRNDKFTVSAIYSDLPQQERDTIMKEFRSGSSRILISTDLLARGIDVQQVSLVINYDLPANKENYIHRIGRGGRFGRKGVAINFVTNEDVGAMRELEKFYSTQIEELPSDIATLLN

[2] = target: T2, Arc1p (Saccharomyces cerevisiae M3 (wild type)) (UniProt P46672)
T2 sequence (looked up, limits assumed): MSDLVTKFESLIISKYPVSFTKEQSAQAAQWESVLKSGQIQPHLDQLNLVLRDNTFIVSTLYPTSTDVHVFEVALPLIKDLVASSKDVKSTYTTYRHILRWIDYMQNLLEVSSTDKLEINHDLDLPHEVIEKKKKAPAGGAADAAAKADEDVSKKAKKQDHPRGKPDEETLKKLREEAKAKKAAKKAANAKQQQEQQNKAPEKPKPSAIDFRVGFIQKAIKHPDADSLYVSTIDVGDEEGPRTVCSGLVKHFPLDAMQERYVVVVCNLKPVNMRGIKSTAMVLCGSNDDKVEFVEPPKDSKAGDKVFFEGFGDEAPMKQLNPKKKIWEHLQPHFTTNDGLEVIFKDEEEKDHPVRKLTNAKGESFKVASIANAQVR

[3] = target: T3, Valyl-tRNA synthetase (Saccharomyces cerevisiae M3 (wild type)) (UniProt P07806)
T3 sequence (looked up, limits assumed): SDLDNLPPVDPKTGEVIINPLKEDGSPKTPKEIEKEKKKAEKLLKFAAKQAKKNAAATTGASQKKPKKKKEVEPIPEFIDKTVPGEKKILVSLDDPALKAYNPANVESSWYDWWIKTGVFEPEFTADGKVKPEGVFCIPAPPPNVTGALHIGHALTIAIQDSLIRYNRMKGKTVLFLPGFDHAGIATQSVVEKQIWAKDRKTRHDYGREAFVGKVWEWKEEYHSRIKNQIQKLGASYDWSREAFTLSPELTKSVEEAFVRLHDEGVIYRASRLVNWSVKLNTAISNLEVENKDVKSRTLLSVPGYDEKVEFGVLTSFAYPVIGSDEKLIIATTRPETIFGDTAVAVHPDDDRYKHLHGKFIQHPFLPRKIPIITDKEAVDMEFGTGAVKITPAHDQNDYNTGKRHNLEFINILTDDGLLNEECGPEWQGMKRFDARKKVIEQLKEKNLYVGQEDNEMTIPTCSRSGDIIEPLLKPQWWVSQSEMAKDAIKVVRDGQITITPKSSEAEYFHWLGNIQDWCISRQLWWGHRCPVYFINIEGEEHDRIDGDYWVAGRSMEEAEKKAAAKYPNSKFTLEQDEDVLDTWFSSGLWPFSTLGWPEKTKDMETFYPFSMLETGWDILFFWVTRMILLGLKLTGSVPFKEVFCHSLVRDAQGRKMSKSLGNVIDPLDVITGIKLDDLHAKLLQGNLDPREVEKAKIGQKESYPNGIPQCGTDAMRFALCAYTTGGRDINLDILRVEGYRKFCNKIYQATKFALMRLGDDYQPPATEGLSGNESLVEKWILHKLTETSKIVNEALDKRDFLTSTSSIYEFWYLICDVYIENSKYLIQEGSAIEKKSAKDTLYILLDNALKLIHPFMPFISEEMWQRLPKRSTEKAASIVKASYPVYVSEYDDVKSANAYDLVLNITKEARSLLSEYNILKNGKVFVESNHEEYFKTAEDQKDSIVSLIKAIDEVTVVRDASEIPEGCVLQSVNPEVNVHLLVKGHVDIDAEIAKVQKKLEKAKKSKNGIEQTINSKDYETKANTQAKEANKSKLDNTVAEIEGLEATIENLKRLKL

[4] = target: T4, Asc1 (Saccharomyces cerevisiae M3 (wild type)) (UniProt P38011)
T4 sequence (looked up, limits assumed): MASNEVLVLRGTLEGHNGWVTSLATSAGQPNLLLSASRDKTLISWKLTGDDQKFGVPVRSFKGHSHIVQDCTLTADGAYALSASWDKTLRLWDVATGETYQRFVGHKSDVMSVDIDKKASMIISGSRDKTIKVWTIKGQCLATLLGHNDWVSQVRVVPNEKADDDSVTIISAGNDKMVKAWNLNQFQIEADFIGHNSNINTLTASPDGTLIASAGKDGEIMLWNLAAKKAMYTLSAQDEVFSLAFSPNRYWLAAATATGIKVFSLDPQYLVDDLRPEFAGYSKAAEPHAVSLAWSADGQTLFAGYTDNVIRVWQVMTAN

[5] = target: T5, HYP2 (eIF5a) (Saccharomyces cerevisiae M3 (wild type)) (UniProt P23301)
T5 sequence (looked up, limits assumed): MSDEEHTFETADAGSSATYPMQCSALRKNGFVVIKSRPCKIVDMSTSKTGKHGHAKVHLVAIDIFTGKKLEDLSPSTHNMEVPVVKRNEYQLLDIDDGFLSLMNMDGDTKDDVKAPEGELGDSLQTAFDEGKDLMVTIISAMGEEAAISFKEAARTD

Measured: binding result

UAUCGUCAUGUUGCCAUCCACCAGCGU [Biotin-10-37 RNA (1B-5' UTR)]
binds: all assays above

— publication PMC5871876
